From paper PMC12034769

Amino acid sequences for entries named in this document (tags omitted). A change or cut given only in a name is not applied to a line headed by its entry.
UniProt P19838: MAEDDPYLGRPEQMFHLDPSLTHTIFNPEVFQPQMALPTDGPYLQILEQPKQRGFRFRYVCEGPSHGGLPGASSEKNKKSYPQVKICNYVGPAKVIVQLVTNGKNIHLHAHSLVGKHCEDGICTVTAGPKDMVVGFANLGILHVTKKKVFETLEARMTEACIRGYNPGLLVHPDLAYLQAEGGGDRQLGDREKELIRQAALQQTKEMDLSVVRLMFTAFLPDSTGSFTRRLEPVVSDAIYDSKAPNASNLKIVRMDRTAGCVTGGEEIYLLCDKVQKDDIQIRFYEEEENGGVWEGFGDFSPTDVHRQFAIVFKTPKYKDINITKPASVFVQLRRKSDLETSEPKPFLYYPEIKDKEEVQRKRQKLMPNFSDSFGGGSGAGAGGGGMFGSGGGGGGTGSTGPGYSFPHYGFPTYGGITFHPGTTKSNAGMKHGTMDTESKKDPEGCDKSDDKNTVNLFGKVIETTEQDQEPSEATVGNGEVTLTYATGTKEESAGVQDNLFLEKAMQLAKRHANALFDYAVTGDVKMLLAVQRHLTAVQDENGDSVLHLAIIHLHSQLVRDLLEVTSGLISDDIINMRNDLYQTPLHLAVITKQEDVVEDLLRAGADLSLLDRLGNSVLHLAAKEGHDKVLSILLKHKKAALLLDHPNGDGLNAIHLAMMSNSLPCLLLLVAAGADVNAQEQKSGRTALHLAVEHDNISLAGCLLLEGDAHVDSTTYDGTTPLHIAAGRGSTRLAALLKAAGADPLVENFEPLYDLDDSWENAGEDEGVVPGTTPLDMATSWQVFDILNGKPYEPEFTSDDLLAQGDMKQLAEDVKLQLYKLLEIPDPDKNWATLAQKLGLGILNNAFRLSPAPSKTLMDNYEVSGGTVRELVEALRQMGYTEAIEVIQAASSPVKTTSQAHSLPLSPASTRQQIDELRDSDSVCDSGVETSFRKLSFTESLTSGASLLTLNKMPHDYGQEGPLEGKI

T1: ACAT1 as immunoprecipitated for mass spectrometry and in Supplementary Fig. 7f-h (construct not told) (human (in HCT116)) (UniProt P24752)
T1 sequence: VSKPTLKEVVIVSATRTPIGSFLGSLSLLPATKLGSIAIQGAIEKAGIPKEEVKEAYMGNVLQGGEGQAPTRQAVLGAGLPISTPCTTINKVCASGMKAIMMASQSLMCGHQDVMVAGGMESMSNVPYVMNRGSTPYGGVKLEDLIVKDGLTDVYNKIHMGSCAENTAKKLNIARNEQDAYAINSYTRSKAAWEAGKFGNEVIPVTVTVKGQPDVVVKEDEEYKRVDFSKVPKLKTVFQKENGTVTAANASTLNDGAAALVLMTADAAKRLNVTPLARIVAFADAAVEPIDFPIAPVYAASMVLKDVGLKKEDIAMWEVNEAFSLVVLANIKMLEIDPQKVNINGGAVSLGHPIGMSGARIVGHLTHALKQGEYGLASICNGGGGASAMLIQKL


Columns and labels:
[1] = molecular target: T1, ACAT1 as immunoprecipitated for mass spectrometry and in Supplementary Fig. 7f-h (construct not told) (human (in HCT116)); assay: affinity purification with mass spectrometry; nuclear ACAT1 immunoprecipitated from the nucleus of HCT116 cells; bound proteins analysed by mass spectrometry
[2] = molecular target: T1, ACAT1 as immunoprecipitated for mass spectrometry and in Supplementary Fig. 7f-h (construct not told) (human (in HCT116)); assay: affinity purification with mass spectrometry; mass spectrometry analysis of the proteins bound to ACAT1; cells not given

Molecule | binding [1] | binding [2]
nuclear factor-kappa B 1 (NFKB1) as identified by mass spectrometry (from UniProt P19838) | binds | 
protein phosphatase 1A (PPM1A), endogenous human (enzyme, UniProt P35813 1-382) MGAFLDKPKMEKHNAQGQGNGLRYGLSSMQGWRVEMEDAHTAVIGLPSGLESWSFFAVYDGHAGSQVAKYCCEHLLDHITNNQDFKGSAGAPSVENVKNGIRTGFLEIDEHMRVMSEKKHGADRSGSTAVGVLISPQHTYFINCGDSRGLLCRNRKVHFFTQDHKPSNPLEKERIQNAGGSVMIQRVNGSLAVSRALGDFDYKCVHGKGPTEQLVSPEPEVHDIERSEEDDQFIILACDGIWDVMGNEELCDFVRSRLEVTDDLEKVCNEVVDTCLYKGSRDNMSVILICFPNAPKVSPEAVKKEAELDKYLECRVEEIIKKQGEGVPDLVHVMRTLASENIPSLPPGGELASKRNVIEAVYNRLNPYKNDDTDSTSTDDMW |  | binds

These are yes or no findings as the source states them, for the method shown. In cells and extracts the contact can be indirect. These calls come from enrichment with a bait or labelling near it, and not all partners need be listed.
